Data taken from article PMC2992532, “A tryptophan-rich peptide acts as a transcription activation domain” (BMC Molecular Biology, 2010).
These are yes or no findings as the source states them, for the method shown. Some entries that bind do so weakly or less than the wild type. Tags and fused reporters may be left off the sequences shown.

Columns and labels:
[1] = target: T1, LexA-TFIIB fusion protein (UniProt P29055 1-345); experiment: two-hybrid; LexA-based yeast two-hybrid in strain EGY48; bait as LexA fusion in pGilda, prey B42-W7; reporter genes LEU2 and lacZ
T1 sequence (looked up): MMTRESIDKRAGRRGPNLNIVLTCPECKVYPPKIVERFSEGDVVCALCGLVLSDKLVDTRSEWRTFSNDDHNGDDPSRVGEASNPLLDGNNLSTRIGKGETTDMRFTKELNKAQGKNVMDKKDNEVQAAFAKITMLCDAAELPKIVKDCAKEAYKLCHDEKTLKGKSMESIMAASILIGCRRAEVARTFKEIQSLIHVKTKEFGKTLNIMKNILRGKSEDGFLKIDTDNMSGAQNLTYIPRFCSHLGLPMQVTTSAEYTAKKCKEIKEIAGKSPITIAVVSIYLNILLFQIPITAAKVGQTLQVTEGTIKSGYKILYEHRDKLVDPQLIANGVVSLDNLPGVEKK

LexA-TBP fusion protein = target: T2, LexA-TBP fusion protein (UniProt P13393); experiment: as above
T2 sequence: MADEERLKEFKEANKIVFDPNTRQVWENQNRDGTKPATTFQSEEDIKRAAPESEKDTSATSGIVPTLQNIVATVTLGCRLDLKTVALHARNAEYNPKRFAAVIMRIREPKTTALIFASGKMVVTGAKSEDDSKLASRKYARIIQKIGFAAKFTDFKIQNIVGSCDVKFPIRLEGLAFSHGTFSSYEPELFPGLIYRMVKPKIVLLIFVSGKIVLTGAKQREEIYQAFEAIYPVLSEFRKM

binding [1]: binds | binding (LexA-TBP fusion protein): no binding
Binder: WWWWWWW [B42-W7 fusion protein (heptatryptophan, W7)]
